{
  "source": "paper PMC12472322",
  "about": "“Structure–Activity Relationship Study of 3-Alkynyl-6-aryl-isothiazolo[4,3-b]pyridines as Dual Inhibitors of the Lipid Kinases PIKfyve and PIP4K2C” (Pharmaceuticals, 2025)",
  "experiment_in_all_cases": "cell proliferation assay (MTS, 72 h)",
  "key": {"[1]": {"system": "HL-60", "details": "Homo sapiens, HL-60, 72 h, read-out: CC50 HL-60"}, "[2]": {"system": "HCT-116", "details": "Homo sapiens, HCT-116, 72 h, read-out: CC50 HCT-116"}, "[3]": {"system": "DND-41", "details": "DND41, 72 h, read-out: CC50 DND-41"}, "[4]": {"system": "LN-229", "details": "Homo sapiens, LN-229, 72 h, read-out: CC50 LN-229"}},
  "data": [
    {"smiles": "Nc1ccc(C(=O)Nc2cccc(-c3nc(N4CCOCC4)c4oc5ncccc5c4n3)c2)cn1", "note": "[YM-201636, reference compound]", "values": [
      {"measurement": "CC50", "setting": "[1]", "value": "310 ± 110", "unit": "nM"},
      {"measurement": "CC50", "setting": "[2]", "value": "1080 ± 1230", "unit": "nM"},
      {"measurement": "CC50", "setting": "[3]", "value": "380 ± 90", "unit": "nM"},
      {"measurement": "CC50", "setting": "[4]", "value": "160 ± 30", "unit": "nM"}
    ]}
  ]
}
